From patent US20250154171A1, “RAS INHIBITORS” (Revolution Medicines, Inc., priority 2023, published 2025)
Some entries share one result that the patent states for a list of compounds. For some assays here: For at least one compound, name, drawing or mass did not settle the structure.

Chains of the proteins cited; added tags and fusions are not shown. Lines headed by an entry give the natural chain unless they say otherwise; changes in a name come on top. Residues count along the entry.
UniProt P01116, 1-188 isoform P01116-2 G12A: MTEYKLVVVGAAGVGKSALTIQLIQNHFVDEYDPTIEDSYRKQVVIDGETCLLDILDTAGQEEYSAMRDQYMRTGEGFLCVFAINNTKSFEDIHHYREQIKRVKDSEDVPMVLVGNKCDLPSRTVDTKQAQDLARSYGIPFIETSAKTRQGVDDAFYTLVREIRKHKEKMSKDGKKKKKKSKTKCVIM
UniProt P01116, 1-188 isoform P01116-2 G12V: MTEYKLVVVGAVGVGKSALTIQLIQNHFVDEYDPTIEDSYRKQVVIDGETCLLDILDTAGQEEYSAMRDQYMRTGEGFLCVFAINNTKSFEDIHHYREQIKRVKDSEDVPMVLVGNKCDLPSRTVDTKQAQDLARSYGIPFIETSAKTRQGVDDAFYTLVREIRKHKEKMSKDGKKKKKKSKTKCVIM
UniProt P62937, whole entry: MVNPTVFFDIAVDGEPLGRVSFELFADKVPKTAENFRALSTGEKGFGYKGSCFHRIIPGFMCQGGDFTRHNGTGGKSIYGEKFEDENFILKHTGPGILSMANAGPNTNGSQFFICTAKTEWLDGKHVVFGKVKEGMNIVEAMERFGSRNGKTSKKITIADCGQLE

Key:
K-RasG12A = K-RasG12A (Homo sapiens, UniProt P01116+P62937, G12A); assay: Disruption of BRAF RBD interaction with K-Ras (TR-FRET / MOA assay), K-RasG12A; assay type: biochemical; conditions: TR-FRET with cyclophilin A and GST-BRAF RBD, read-out: IC50 with respect to K-RasG12A (disruption of BRAF RBD interaction)
K-RasG12V = K-RasG12V (Homo sapiens, UniProt P01116+P62937, G12V); assay: Disruption of BRAF RBD interaction with K-Ras (TR-FRET / MOA assay), K-RasG12V; assay type: biochemical; conditions: TR-FRET with cyclophilin A and GST-BRAF RBD, read-out: IC50 with respect to K-RasG12V (disruption of BRAF RBD interaction)
Capan-1 (K-Ras G12V) = assay: CellTiter-Glo cell viability assay, Capan-1; assay type: cell-based, human; conditions: 5-day treatment; for decrease in cell viability with respect to Capan-1 and/or NCI-H2009 versus wild-type KRAS (A375): Capan-1 and/or NCI-H2009 versus A375; for decrease in cell viability with respect to KRAS G12V (Capan-1) versus wild-type KRAS (A375): Capan-1 versus A375

With `CO[C@@H](C)c1ncccc1-c1c2c3cc(ccc3n1C1CN(C3CC3)C1)-c1cccc(c1)[C@@H](N1CC3(CCCN3C)C1)[C@H](NC(=O)[C@H]1[C@H](C)[C@@H]1C)C(=O)N1CCC[C@H](N1)C(=O)OCC(C)(C)C2` (atropisomer, axis not shown) [Example A876] the IC50 (K-RasG12A) was less than 1 µM, the IC50 (K-RasG12V) was less than 1 µM and the “decrease in cell viability with respect to Capan-1 and/or NCI-H2009 versus wild-type KRAS (A375)” value (Capan-1 (K-Ras G12V)) was “greater decrease in cell viability”.
For `CO[C@H]1CN(C)C2(C1)CN([C@@H]1c3nc(cs3)-c3ccc4c(c3)c(c(-c3cccnc3[C@H](C)OC)n4C3CN(C4CC4)C3)CC(C)(C)COC(=O)[C@@H]3CCCN(N3)C(=O)[C@H]1NC(=O)[C@H]1[C@H](C)[C@@H]1C)C2` (atropisomer, axis not shown) [Example A877], the IC50 (K-RasG12A) was less than 1 µM, the IC50 (K-RasG12V) was less than 1 µM and the “decrease in cell viability with respect to Capan-1 and/or NCI-H2009 versus wild-type KRAS (A375)” value (Capan-1 (K-Ras G12V)) was “greater decrease in cell viability”.
For `CO[C@@H](C)c1ncccc1-c1c2c3cc(ccc3n1C1CN(C3CC3)C1)-c1csc(n1)[C@@H](N1CC3(CCC(=O)N3)C1)[C@H](NC(=O)[C@H]1[C@H](C)[C@@H]1C)C(=O)N1CCC[C@H](N1)C(=O)OCC(C)(C)C2` (atropisomer, axis not shown) [Example A878], the IC50 (K-RasG12A) was less than 1 µM, the IC50 (K-RasG12V) was less than 1 µM and the “decrease in cell viability with respect to Capan-1 and/or NCI-H2009 versus wild-type KRAS (A375)” value (Capan-1 (K-Ras G12V)) was “greater decrease in cell viability”.
For `CO[C@@H](C)c1ncc(N2CCN(C3CC3)CC2)cc1-c1c2c3cc(ccc3n1C1CN(C3CC3)C1)-c1csc(n1)[C@@H](N1CC3(CCCN3C)C1)[C@H](NC(=O)[C@@H]1[C@@H](C)[C@H]1c1ccncn1)C(=O)N1CCC[C@H](N1)C(=O)OCC(C)(C)C2` (atropisomer, axis not shown) [Example A880], the IC50 (K-RasG12A) was less than 1 µM, the IC50 (K-RasG12V) was less than 1 µM and the “decrease in cell viability with respect to Capan-1 and/or NCI-H2009 versus wild-type KRAS (A375)” value (Capan-1 (K-Ras G12V)) was “greater decrease in cell viability”.
With `CO[C@@H](C)c1ncccc1-c1c2c3cc(ccc3n1C1CN(C3CC3)C1)-c1coc(n1)[C@@H](N1CC3(CCCN3C)C1)[C@H](NC(=O)[C@H]1[C@H](C)[C@@H]1C1CC1)C(=O)N1CCC[C@H](N1)C(=O)OCC(C)(C)C2` (atropisomer, axis not shown) [Example A881] the IC50 (K-RasG12A) was less than 1 µM, the IC50 (K-RasG12V) was less than 1 µM and the “decrease in cell viability with respect to Capan-1 and/or NCI-H2009 versus wild-type KRAS (A375)” value (Capan-1 (K-Ras G12V)) was “greater decrease in cell viability”.
In the case of `COCCN1CCN(c2cnc([C@H](C)OC)c(-c3c4c5cc(ccc5n3C3CN(C5CC5)C3)-c3csc(n3)[C@@H](N3CC5(COC5)C3)[C@H](NC(=O)[C@@H]3[C@@H](C)[C@H]3C(C)C)C(=O)N3CCC[C@H](N3)C(=O)OCC(C)(C)C4)c2)CC1` (atropisomer, axis not shown) [Example A1014], the IC50 (K-RasG12A) is reported as less than 1 µM and the IC50 (K-RasG12V) is reported as less than 1 µM.
`COCCN1CCN(c2cnc([C@H](C)OC)c(-c3c4c5cc(ccc5n3C3CN(C5CC5)C3)-c3csc(n3)[C@@H](N3CC5(COC5)C3)[C@H](NC(=O)[C@@H]3[C@@H](C)[C@H]3c3ccncn3)C(=O)N3CCC[C@H](N3)C(=O)OCC(C)(C)C4)c2)CC1` (atropisomer, axis not shown) [Example A1181] was tested, and the IC50 (K-RasG12A) was less than 1 µM and the IC50 (K-RasG12V) was less than 1 µM.
With `CO[C@@H](C)c1ncc([C@H]2CCCN(C)CC2)cc1-c1c2c3cc(ccc3n1CCOC1CCOCC1)-c1csc(n1)[C@@H](N1CCOCC1)[C@H](NC(=O)[C@H]1[C@H](C)[C@@H]1C)C(=O)N1CCC[C@H](N1)C(=O)OCC(C)(C)C2` [Example A836] the IC50 (K-RasG12V) was less than 1 µM and the “decrease in cell viability with respect to KRAS G12V (Capan-1) versus wild-type KRAS (A375)” value (Capan-1 (K-Ras G12V)) was “greater decrease in cell viability”.
In the case of `CCO[C@@H]1c2nc(cs2)-c2ccc3c(c2)c(c(-c2cc(N4CCN(C)CC4)cnc2[C@H](C)OC)n3CCOC2CCOCC2)CC(C)(C)COC(=O)[C@@H]2CCCN(N2)C(=O)[C@H]1NC(=O)[C@H]1C[C@@H]1c1ccccn1` [Example A845], the IC50 (K-RasG12V) is reported as less than 1 µM and the “decrease in cell viability with respect to KRAS G12V (Capan-1) versus wild-type KRAS (A375)” value (Capan-1 (K-Ras G12V)) is reported as “greater decrease in cell viability”.
